This passage reports cyclisation yield, step yield and crude yield results from patent EP0325044 (dated 1989).

This data set in a line: general procedure: peptide synthesis; HOBT.

HELM strings list residues between dots; [ac] is acetyl, [am] amide, other brackets name non-standard units.

In the case of “PEPTIDE1{[dA].[dV].K.K.Y.[dL]}$PEPTIDE1,PEPTIDE1,1:R1-6:R2$$$V2.0”, the cyclisation yield (cyclisation step, trifluoroacetate salt (Example 1), acetate salt (Example 2)) worked out at 86%. Further, under “late stage modification step, acetate salt”, the step yield was determined as 98%. Further, the crude yield (whole synthesis, trifluoroacetate salt (Example 1), acetate salt (Example 2)) is recorded as 92%.
